Some entries share one result that the patent states for a list of compounds. For part of these data: At least one read-out could not be matched to a standard name with certainty.
Columns and labels:
[1] = biological target: T1, cytoplasmic domain of the human VEGF receptor (VEGFR-2) (Homo sapiens, UniProt P35968); test: KDR Assay; type: biochemical; conditions: His-VEGFR-2; 3.6 μM ATP
T1 construct: The cytoplasmic domain of the human VEGF receptor (VEGFR-2) was expressed as a Histidine-tagged fusion protein; Histidine tag
Method: The plates were incubated with 1% BSA and then washed four times with PBS prior to starting the reaction. […] Reactions were initiated by the addition 0.5 ng of purified protein. […] The reaction was terminated by the addition of 100 μl of 2.5N H2SO4 to each well and read using a microplate ELISA reader set at 492 nm. IC50 values for compound inhibition were calculated directly from graphs of optical density (arbitrary units) versus compound concentration following subtraction of blank values.

Amino acid sequences for entries named in this document (tags omitted). Residues count along the entry.
UniProt P35968, 786-1356: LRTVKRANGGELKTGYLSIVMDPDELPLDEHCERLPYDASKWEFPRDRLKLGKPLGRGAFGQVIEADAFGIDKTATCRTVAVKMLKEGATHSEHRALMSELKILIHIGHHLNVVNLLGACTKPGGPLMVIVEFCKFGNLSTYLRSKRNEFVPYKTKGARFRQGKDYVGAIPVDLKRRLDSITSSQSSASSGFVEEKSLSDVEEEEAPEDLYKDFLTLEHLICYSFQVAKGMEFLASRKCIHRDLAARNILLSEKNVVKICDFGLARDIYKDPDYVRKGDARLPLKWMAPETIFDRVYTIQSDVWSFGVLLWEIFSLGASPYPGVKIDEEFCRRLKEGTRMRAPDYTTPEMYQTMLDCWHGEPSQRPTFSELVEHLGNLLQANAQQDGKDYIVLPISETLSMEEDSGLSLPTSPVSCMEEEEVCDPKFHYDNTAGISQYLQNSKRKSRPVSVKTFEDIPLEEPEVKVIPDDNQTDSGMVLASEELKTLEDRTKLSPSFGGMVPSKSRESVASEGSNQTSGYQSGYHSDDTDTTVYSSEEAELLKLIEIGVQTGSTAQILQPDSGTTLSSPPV

[2] = system: VEGF induced increases in intracellular calcium levels in HUVEC (human umbilical vein endothelial cells); test: VEGF Stimulated Ca++ Signal in vitro (FLIPR); type: cell-based; conditions: either-or criterion summarising Table 2
Method: Cells were loaded with calcium indicator Fluo-4 for 45 minutes at 37° C. Cells were washed 4 times (Original Cell Wash, Labsystems) to remove extracellular dye. […] Data were generated by determining max-min fluorescence levels for unstimulated, stimulated, and drug treated samples. IC50 values for test compounds were calculated from % inhibition of VEGF stimulated responses in the absence of inhibitor.

Question: For `CCN(CC)c1ccc(NC=C2C(=O)Nc3cccc(C)c32)cc1` [Example 189, 3-[(4-Diethylamino-phenylamino)-methylene]-4-methyl-1,3-dihydro-indol-2-one], which IC50 [1] is on record?
Answer: Its IC50 is ≤ 1000 nM.

Question: What about the “% inhibition of VEGF or VEGF IC50 in either the VEGF stimulated Ca++ signal assay or KDR assay” value (“% inhibition of VEGF or VEGF IC50” below) [2] of the same compound?
Answer: The value was “either % inhibition of VEGF>79% or VEGIF IC50<1.0 μM”.

Question: For `Cc1cccc2c1C(=CNc1ccc(C(=S)N3CCOCC3)cc1)C(=O)N2` [Example 196, 4-Methyl-3-{[4-(1-morpholin-4-yl-methanethiol)-phenylamino]-methylene}-1,3-dihydro-indol-2-one], which IC50 [1] is on record?
Answer: Its IC50 is ≤ 1000 nM.

Question: What about the “% inhibition of VEGF or VEGF IC50” value [2] of the same compound?
Answer: The value was “either % inhibition of VEGF>79% or VEGIF IC50<1.0 μM”.

Question: Which IC50 [1] does the source give for `Cc1cccc2c1C(=CNc1ccc(S(=O)(=O)NCCO)cc1)C(=O)N2` [Example 197, N-(2-Hydroxy-ethyl)-4-[(4-methyl-2-oxo-1,2-dihydro-indol-3-ylidenemethyl)-amino]-benzenesulfonamide] here?
Answer: The IC50 was ≤ 1000 nM.

Question: And the “% inhibition of VEGF or VEGF IC50” value [2]?
Answer: The value was “either % inhibition of VEGF>79% or VEGIF IC50<1.0 μM”.

Question: With `Cc1cccc2c1C(=CNc1cccc(N)c1)C(=O)N2` [Example 210, 3-[(3-Amino-phenylamino)-methylene]-4-methyl-1,3-dihydro-indol-2-one] as the compound, how does the IC50 [1] read?
Answer: The IC50 was ≤ 1000 nM.

Question: What about the “% inhibition of VEGF or VEGF IC50” value [2] of the same compound?
Answer: The value was “either % inhibition of VEGF>79% or VEGIF IC50<1.0 μM”.

Question: How did the IC50 [1] turn out when `Cc1ccc(NC=C2C(=O)Nc3ccccc32)cc1N` [Example 212, 3-[(3-Amino-4-methyl-phenylamino)-methylene]-1,3-dihydro-indol-2-one] was run?
Answer: The IC50 was ≤ 1000 nM.

Question: And the “% inhibition of VEGF or VEGF IC50” value [2]?
Answer: The value was “either % inhibition of VEGF>79% or VEGIF IC50<1.0 μM”.

Question: With `Cc1ccc(NC=C2C(=O)Nc3cccc(C)c32)cc1N` [Example 213, 3-[(3-Amino-4-methyl-phenylamino)-methylene]-4-methyl-1,3-dihydro-indol-2-one] as the compound, how does the IC50 [1] read?
Answer: Its IC50 is ≤ 1000 nM.

Question: What about the “% inhibition of VEGF or VEGF IC50” value [2] of the same compound?
Answer: The value was “either % inhibition of VEGF>79% or VEGIF IC50<1.0 μM”.

Question: How did the IC50 [1] turn out when `CN1CCN(CCCOc2ccc(NC=C3C(=O)Nc4ccccc43)cc2)CC1` [Example 217, 3-({4-[3-(4-Methyl-piperazin-1-yl)-propoxy]-phenylamino}-methylene)-1,3-dihydro-indol-2-one] was run?
Answer: The IC50 was ≤ 1000 nM.

Question: And the “% inhibition of VEGF or VEGF IC50” value [2]?
Answer: The value was “either % inhibition of VEGF>79% or VEGIF IC50<1.0 μM”.

Question: How did the IC50 [1] turn out when `O=C1Nc2ccccc2C1=CNc1ccc(OCCCN2CCSCC2)cc1` [Example 225, 3-{[4-(3-Thiomorpholin-4-yl-propoxy)-phenylamino]-methylene}-1,3-dihydro-indol-2-one] was run?
Answer: Its IC50 is ≤ 1000 nM.

Question: What about the “% inhibition of VEGF or VEGF IC50” value [2] of the same compound?
Answer: Its value is “either % inhibition of VEGF>79% or VEGIF IC50<1.0 μM”.

Question: What does the source list for `O=C1Nc2ccccc2C1=CNc1ccc(OCCCCN2CCSCC2)cc1` [Example 226, 3-{[4-(4-Thiomorpholin-4-yl-butoxy)-phenylamino]-methylene}-1,3-dihydro-indol-2-one]?
Answer: IC50 [1]: ≤ 1000 nM; % inhibition of VEGF or VEGF IC50 in either the VEGF stimulated Ca++ signal assay or KDR assay [2]: either % inhibition of VEGF>79% or VEGIF IC50<1.0 μM

Question: `Cc1cccc2c1C(=CNc1ccc(N3CCOCC3)cc1)C(=O)N2` [Example 227, 4-Methyl-3-[(4-morpholin-4-yl-phenylamino)-methylene]-1,3-dihydro-indol-2-one] was tested. Which IC50 [1] did it give?
Answer: The IC50 was ≤ 1000 nM.

Question: What about the “% inhibition of VEGF or VEGF IC50” value [2] of the same compound?
Answer: Its value is “either % inhibition of VEGF>79% or VEGIF IC50<1.0 μM”.

Question: What does the source list for `O=C1Nc2cc(F)ccc2C1=CNc1ccc(N2CCOCC2)cc1` [Example 228, 6-Fluoro-3-[(4-morpholin-4-yl-phenylamino)-methylene]-1,3-dihydro-indol-2-one]?
Answer: IC50 [1]: ≤ 1000 nM; % inhibition of VEGF or VEGF IC50 in either the VEGF stimulated Ca++ signal assay or KDR assay [2]: either % inhibition of VEGF>79% or VEGIF IC50<1.0 μM

Question: For `CN1CCN(c2ccc(NC=C3C(=O)Nc4cc(F)ccc43)cc2)CC1` [Example 230, 6-Fluoro-3-{[4-(4-methyl-piperazin-1-yl)-phenylamino]-methylene}-1,3-dihydro-indol-2-one], which IC50 [1] is on record?
Answer: The IC50 was ≤ 1000 nM.

Question: And the “% inhibition of VEGF or VEGF IC50” value [2]?
Answer: The value was “either % inhibition of VEGF>79% or VEGIF IC50<1.0 μM”.

Question: With `CCN(CC)CCCOc1ccc(NC=C2C(=O)Nc3ccc(Cl)cc32)cc1` [Example 232, 5-Chloro-3-{[4-(3-diethylamino-propoxy)-phenylamino]-methylene}-1,3-dihydro-indol-2-one] as the compound, how does the IC50 [1] read?
Answer: Its IC50 is ≤ 1000 nM.

Question: And the “% inhibition of VEGF or VEGF IC50” value [2]?
Answer: The value was “either % inhibition of VEGF>79% or VEGIF IC50<1.0 μM”.

Question: `CCN(CC)CCCOc1ccc(NC=C2C(=O)Nc3ccc(F)cc32)cc1` [Example 233, 3-{[4-(3-Diethylamino-propoxy)-phenylamino]-methylene}-5-fluoro-1,3-dihydro-indol-2-one] was tested. Which IC50 [1] did it give?
Answer: Its IC50 is ≤ 1000 nM.

Question: What about the “% inhibition of VEGF or VEGF IC50” value [2] of the same compound?
Answer: The value was “either % inhibition of VEGF>79% or VEGIF IC50<1.0 μM”.

Question: Which IC50 [1] does the source give for `O=C1Nc2ccc(F)cc2C1=CNc1ccc(OCCCN2CCCCC2)cc1` [Example 240, 5-Fluoro-3-{[4-(3-piperidin-1-yl-propoxy)-phenylamino]-methylene}-1,3-dihydro-indol-2-one] here?
Answer: Its IC50 is ≤ 1000 nM.

Question: What about the “% inhibition of VEGF or VEGF IC50” value [2] of the same compound?
Answer: Its value is “either % inhibition of VEGF>79% or VEGIF IC50<1.0 μM”.

Question: With `Cc1cccc2c1C(=CNc1ccc(NCCN3CCOCC3)cc1)C(=O)N2` [Example 242, 4-Methyl-3-{[4-(2-morpholin-4-yl-ethylamino)-phenylamino]-methylene}-1,3-dihydro-indol-2-one] as the compound, how does the IC50 [1] read?
Answer: The IC50 was ≤ 1000 nM.

Question: And the “% inhibition of VEGF or VEGF IC50” value [2]?
Answer: The value was “either % inhibition of VEGF>79% or VEGIF IC50<1.0 μM”.

Question: How did the IC50 [1] turn out when `O=C1Nc2ccc(F)cc2C1=CNc1ccc(NCCN2CCOCC2)cc1` [Example 244, 5-Fluoro-3-{[4-(2-morpholin-4-yl-ethylamino)-phenylamino]-methylene}-1,3-dihydro-indol-2-one] was run?
Answer: The IC50 was ≤ 1000 nM.

Question: What about the “% inhibition of VEGF or VEGF IC50” value [2] of the same compound?
Answer: Its value is “either % inhibition of VEGF>79% or VEGIF IC50<1.0 μM”.

Question: With `O=C1Nc2ccc(Cl)cc2C1=CNc1ccc(NCCN2CCOCC2)cc1` [Example 245, 5-Chloro-3-{[4-(2-morpholin-4-yl-ethylamino)-phenylamino]-methylene}-1,3-dihydro-indol-2-one] as the compound, how does the IC50 [1] read?
Answer: Its IC50 is ≤ 1000 nM.

Question: What about the “% inhibition of VEGF or VEGF IC50” value [2] of the same compound?
Answer: The value was “either % inhibition of VEGF>79% or VEGIF IC50<1.0 μM”.

Question: With `Cc1cccc2c1C(=CNc1ccc(OCCCCN3CCCCC3)cc1)C(=O)N2` [Example 246, 4-Methyl-3-{[4-(4-piperidin-1-yl-butoxy)-phenylamino]-methylene}-1,3-dihydro-indol-2-one] as the compound, how does the IC50 [1] read?
Answer: Its IC50 is ≤ 1000 nM.

Question: What about the “% inhibition of VEGF or VEGF IC50” value [2] of the same compound?
Answer: Its value is “either % inhibition of VEGF>79% or VEGIF IC50<1.0 μM”.

Question: With `CCN(CC)CCCOc1ccc(NC=C2C(=O)Nc3ccccc32)cc1F` [Example 248, 3-{[4-(3-Diethylamino-propoxy)-3-fluoro-phenylamino]-methylene}-1,3-dihydro-indol-2-one] as the compound, how does the IC50 [1] read?
Answer: Its IC50 is ≤ 1000 nM.

Question: And the “% inhibition of VEGF or VEGF IC50” value [2]?
Answer: The value was “either % inhibition of VEGF>79% or VEGIF IC50<1.0 μM”.

Question: With `O=C1Nc2ccccc2C1=CNc1ccc(CN2CCCCC2)cc1` [Example 251, 3-[(4-Piperidin-1-ylmethyl-phenylamino)-methylene]-1,3-dihydro-indol-2-one] as the compound, how does the IC50 [1] read?
Answer: Its IC50 is ≤ 1000 nM.

Question: And the “% inhibition of VEGF or VEGF IC50” value [2]?
Answer: Its value is “either % inhibition of VEGF>79% or VEGIF IC50<1.0 μM”.

Question: Which IC50 [1] does the source give for `Cc1cccc2c1C(=CNc1ccc(OCCN3CCCCC3)cc1)C(=O)N2` [Example 252, 4-Methyl-3-{[4-(2-piperidin-1-yl-ethoxy)-phenylamino]-methylene}-1,3-dihydro-indol-2-one] here?
Answer: The IC50 was ≤ 1000 nM.

Question: What about the “% inhibition of VEGF or VEGF IC50” value [2] of the same compound?
Answer: The value was “either % inhibition of VEGF>79% or VEGIF IC50<1.0 μM”.

Question: Which IC50 [1] does the source give for `O=C1Nc2cc(F)ccc2C1=CNc1ccc(OCCN2CCCCC2)cc1` [Example 253, 6-Fluoro-3-{[4-(2-piperidin-1-yl-ethoxy)-phenylamino]-methylene}-1,3-dihydro-indol-2-one] here?
Answer: The IC50 was ≤ 1000 nM.

Question: What about the “% inhibition of VEGF or VEGF IC50” value [2] of the same compound?
Answer: The value was “either % inhibition of VEGF>79% or VEGIF IC50<1.0 μM”.

Question: `O=C1Nc2ccccc2C1=CNc1ccc(OCCN2CCCCC2)cc1` [Example 254, 3-{[4-(2-Piperidin-1-yl-ethoxy)-phenylamino]-methylene}-1,3-dihydro-indol-2-one] was tested. Which IC50 [1] did it give?
Answer: The IC50 was ≤ 1000 nM.

Question: And the “% inhibition of VEGF or VEGF IC50” value [2]?
Answer: The value was “either % inhibition of VEGF>79% or VEGIF IC50<1.0 μM”.

Question: How did the IC50 [1] turn out when `Cc1cccc2c1C(=CNc1ccc(CN3CCCCC3)cc1)C(=O)N2` [Example 256, 4-Methyl-3-[(4-piperidin-1-ylmethyl-phenylamino)-methylene]-1,3-dihydro-indol-2-one] was run?
Answer: The IC50 was ≤ 1000 nM.

Question: And the “% inhibition of VEGF or VEGF IC50” value [2]?
Answer: Its value is “either % inhibition of VEGF>79% or VEGIF IC50<1.0 μM”.

Question: Which IC50 [1] does the source give for `O=C1Nc2ccc(F)cc2C1=CNc1ccc(CN2CCCCC2)cc1` [Example 258, 5-Fluoro-3-[(4-piperidin-1-ylmethyl-phenylamino)-methylene]-1,3-dihydro-indol-2-one] here?
Answer: Its IC50 is ≤ 1000 nM.

Question: What about the “% inhibition of VEGF or VEGF IC50” value [2] of the same compound?
Answer: Its value is “either % inhibition of VEGF>79% or VEGIF IC50<1.0 μM”.

Question: How did the IC50 [1] turn out when `O=C1Nc2cc(F)ccc2C1=CNc1ccc(CN2CCCCC2)cc1` [Example 259, 6-Fluoro-3-[(4-piperidin-1-ylmethyl-phenylamino)-methylene]-1,3-dihydro-indol-2-one] was run?
Answer: The IC50 was ≤ 1000 nM.

Question: What about the “% inhibition of VEGF or VEGF IC50” value [2] of the same compound?
Answer: The value was “either % inhibition of VEGF>79% or VEGIF IC50<1.0 μM”.

From patent US20030225152A1, “3-(Arylamino)methylene-1, 3-dihydro-2h-indol-2-ones as kinase inhibitors” (priority 2001, published 2003)
